Construct, isoform or probe ends are uncertain for at least one entry. For part of these data: Negatives hold for the conditions tested. For part of these data: At least one verdict rests on a figure or table, not on a statement of the authors. For part of these data: Protein sequences can lack the tags named with them. For part of these data: The comparison behind a weaker result is the experiment's own reference, which may not be listed here.

The chains behind the UniProt entries cited, without tags or fusion partners. Where a name states a change or a piece, a line headed by the entry shows the natural chain unless it says otherwise. Residues count along the entry.
UniProt Q9P1Z0: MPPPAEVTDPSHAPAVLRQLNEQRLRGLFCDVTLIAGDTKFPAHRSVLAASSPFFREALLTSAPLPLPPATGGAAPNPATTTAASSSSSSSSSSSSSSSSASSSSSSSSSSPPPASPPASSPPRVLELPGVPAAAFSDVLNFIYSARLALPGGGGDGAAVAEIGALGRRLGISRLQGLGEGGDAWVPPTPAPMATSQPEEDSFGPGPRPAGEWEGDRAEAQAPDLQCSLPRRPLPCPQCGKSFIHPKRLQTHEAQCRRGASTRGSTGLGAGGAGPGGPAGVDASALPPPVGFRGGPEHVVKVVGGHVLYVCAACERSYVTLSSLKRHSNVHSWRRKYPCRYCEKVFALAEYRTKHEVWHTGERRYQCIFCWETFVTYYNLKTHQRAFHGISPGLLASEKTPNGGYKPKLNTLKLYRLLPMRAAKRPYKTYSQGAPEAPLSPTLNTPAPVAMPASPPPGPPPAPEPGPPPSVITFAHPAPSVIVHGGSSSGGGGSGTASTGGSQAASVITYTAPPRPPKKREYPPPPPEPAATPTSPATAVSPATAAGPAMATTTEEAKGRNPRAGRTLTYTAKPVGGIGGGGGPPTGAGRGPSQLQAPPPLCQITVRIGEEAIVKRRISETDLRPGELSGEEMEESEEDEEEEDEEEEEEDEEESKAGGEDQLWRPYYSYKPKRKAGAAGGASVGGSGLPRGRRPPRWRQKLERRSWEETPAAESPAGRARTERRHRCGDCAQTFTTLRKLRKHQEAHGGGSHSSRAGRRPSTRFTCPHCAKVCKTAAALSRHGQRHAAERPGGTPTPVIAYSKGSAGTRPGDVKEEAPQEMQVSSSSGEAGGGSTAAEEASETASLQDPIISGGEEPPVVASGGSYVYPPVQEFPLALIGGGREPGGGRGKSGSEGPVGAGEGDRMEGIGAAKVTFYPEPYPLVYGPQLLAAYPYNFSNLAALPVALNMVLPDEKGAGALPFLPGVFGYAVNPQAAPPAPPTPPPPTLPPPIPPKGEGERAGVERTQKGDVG
UniProt P51608, 77-164: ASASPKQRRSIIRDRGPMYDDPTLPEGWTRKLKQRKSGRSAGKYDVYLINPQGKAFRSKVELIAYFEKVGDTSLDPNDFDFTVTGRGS

We go through 4 sequences from paper PMC2917364.

Common to all, as to assay: EMSA
For orientation: In EMSA bound probe runs differently from free probe, usually more slowly.

The target of data set [1] is T1, GST-MBD6 MBD (Homo sapiens) (UniProt Q96DN6).
T1 sequence (looked up): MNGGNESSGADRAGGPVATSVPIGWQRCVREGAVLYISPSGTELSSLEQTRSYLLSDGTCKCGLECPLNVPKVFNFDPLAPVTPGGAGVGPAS
The conditions noted are these: 1 ug poly(dI-dC); 5-methylcytosine at the single CpG; 1 nM probe, 1 uM protein, 20 min at 25 C; 50 mM Tris-HCl pH 8, 1 mM EDTA, 1 mM DTT, 1 mM PMSF, 5% …; 6% PAGE in 0.5x TBE at 4 C; recombinant protein; residues 1-93; protein details: GST; label: radiolabel.

The target in data set [2] is GST-ZBTB4 zinc fingers (UniProt Q9P1Z0). The conditions noted are these: 1 ug poly(dI-dC); 5-methylcytosine at the single CpG; 1 nM probe, 1 uM protein, 20 min at 25 C; 50 mM Tris-HCl pH 8, 1 mM EDTA, 1 mM DTT, 1 mM PMSF, 5% …; 6% PAGE in 0.5x TBE at 4 C; recombinant protein; protein details: GST; label: radiolabel.
Data set [3] addresses GST-MBD5 MBD (larger region) (Homo sapiens) (UniProt Q9P267). The conditions noted are these: 1 ug poly(dI-dC); 5-methylcytosine at the single CpG; 1 nM probe, 1 uM protein, 20 min at 25 C; 50 mM Tris-HCl pH 8, 1 mM EDTA, 1 mM DTT, 1 mM PMSF, 5% …; 6% PAGE in 0.5x TBE at 4 C; recombinant protein; protein details: GST; label: radiolabel.
For data set [4], the target named is T2, 6xHis-MBD5 MBD (Homo sapiens) (UniProt Q9P267).
T2 sequence (looked up): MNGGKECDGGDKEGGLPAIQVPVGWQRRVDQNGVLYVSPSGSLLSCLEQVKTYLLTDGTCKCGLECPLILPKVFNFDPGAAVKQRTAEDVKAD
The conditions noted are these: 1 nM probe, 1 uM protein, 20 min at 25 C, 50 mM Tris-HCl pH 8, 1 mM EDTA, 1 mM DTT, 1 mM PMSF, 6% PAGE in 0.5x TBE at 4 C, recombinant protein, residues 1-93, protein details: 6xHis (N-terminal), label: FAM.

The target in data set [5] is T3, 6xHis-MBD6 MBD (Homo sapiens) (UniProt Q96DN6).
T3 sequence (looked up): T1 sequence (looked up)
The conditions noted are these: 1 nM probe, 1 uM protein, 20 min at 25 C, 50 mM Tris-HCl pH 8, 1 mM EDTA, 1 mM DTT, 1 mM PMSF, 6% PAGE in 0.5x TBE at 4 C, recombinant protein, residues 1-93, protein details: 6xHis (N-terminal), label: FAM.

Data set [6] concerns the target 6xHis-MeCP2 MBD (Homo sapiens) (UniProt P51608). The conditions noted are these: 1 nM probe, 1 uM protein, 20 min at 25 C, 50 mM Tris-HCl pH 8, 1 mM EDTA, 1 mM DTT, 1 mM PMSF, 5% glycerol, 6% PAGE in 0.5x TBE at 4 C, recombinant protein, residues 77-164, protein details: 6xHis (N-terminal), label: FAM.
In data set [7] the target is T4, MBP-MBD6 MBD (Homo sapiens) (UniProt Q96DN6).
T4 sequence (looked up): T1 sequence (looked up)
The conditions noted are these: 1 ug poly(dA-dC), no significant binding without competitor; 1 nM probe, 1 uM protein, 20 min at 25 C; 50 mM Tris-HCl pH 8, 1 mM EDTA, 1 mM DTT, 1 mM PMSF, 5% glycerol; 6% PAGE in 0.5x TBE at 4 C; recombinant protein; residues 1-93; protein details: MBP; label: FAM.

Data set [8] deals with MBP-MeCP2 MBD (Homo sapiens) (UniProt P51608). The conditions noted are these: 1 ug poly(dA-dC), stated as methylation-dependent interaction; 1 nM probe, 1 uM protein, 20 min at 25 C; 50 mM Tris-HCl pH 8, 1 mM EDTA, 1 mM DTT, 1 mM PMSF, 5% glycerol; 6% PAGE in 0.5x TBE at 4 C; recombinant protein; residues 77-164; protein details: MBP; label: FAM.
Data set [9] concerns the target T5, MBP-MBD5 MBD (Homo sapiens) (UniProt Q9P267).
T5 sequence (looked up): T2 sequence (looked up)
The conditions noted are these: 1 ug poly(dA-dC), no significant binding without competitor; 1 nM probe, 1 uM protein, 20 min at 25 C; 50 mM Tris-HCl pH 8, 1 mM EDTA, 1 mM DTT, 1 mM PMSF, 5% glycerol; 6% PAGE in 0.5x TBE at 4 C; recombinant protein; residues 1-93; protein details: MBP; label: FAM.

The mark [10] stands for this setting: 200 ng poly(dA-dC), 5% glycerol.
The mark [11] stands for this setting: limited poly(dA-dC) (500 ng per Methods), 5% glycerol.
[12] abbreviates: 1 ug poly(dA-dC), also no binding without competitor, 5% ….

Consider “GTAGAAGTTCCCGCCATCACTATTG (double strand) [SL4 methylated]”, for which the figures for the binding result in [1], in data set [2] and in data set [3] were “no binding”, “binds” and “no binding”, respectively.
For the sequence “TAGTGCCCTCCGCCATGTACCATGGATCCGATGTACAT (double strand) [SL1 unmethylated]”, the binding result in [4] (setting [10]) is reported as “no binding”; in [4] (no competitor DNA, 5% glycerol), “no binding”; in [5] (setting [10]), “no binding”; in data set [5] (no competitor DNA, 5% glycerol), “no binding”; in data set [6] (200 ng poly(dA-dC)) it was “no binding”; in data set [6] (no competitor DNA), “binds”.
For “TAGACATTGCCCTCGAGGTACCATGGATCCGATGTCGACCTCAAACCGAGACGAATTCCG (double strand) [SL2 unmethylated]”, the results for the binding result in data set [4] (setting [11]), in data set [5] (setting [11]) and in [6] (limited poly(dA-dC) (500 ng per Methods)) were “no binding”, “no binding” and “binds more weakly”, respectively.
For the sequence “CGCGACGACGCACCACGACGCACGACGCGAACGCGCCAA (double strand) [SL3 unmethylated]”, the binding result in data set [7], in data set [8], in data set [9], in [4] (setting [12]), in data set [5] (setting [12]) and in data set [6] (1 ug poly(dA-dC)) was “no binding” each time.
